Data as given in PubChem BioAssay AID1259424 (University of Nebraska Medical Center, 2018).
In all, the deposit lists about 14,000 reagents; below is an unselected part. 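Higher correlation or smaller distance means closer resemblance to KSR1 loss; control wells, including KSR1 knockdowns, recur on many plates.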 Not given: the time to read-out.

Test: 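Rank knockdowns across the genome by resemblance to the KSR1 depletion profile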 (primary screen)
Cell system: human HCT116 colon cancer cells
Knock-down reagent: siRNA pool against human genes, 50 nM
Measurement: 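Log2 levels of six mRNAs (branched-DNA multiplex), adjusted by two reference genes and the non-targeting median, then scored against the average KSR1 knockdown pattern as Pearson r and euclidean distance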
Scale: mean correlation with KSR1 profile and KSR1 correlation: higher = expression change more like KSR1 knockdown; mean distance from KSR1 profile: higher = expression change less like KSR1 knockdown

| gene knocked down | mean correlation with KSR1 profile | mean distance from KSR1 profile | KSR1 correlation, replicate 1 | KSR1 correlation, replicate 2 | KSR1 correlation, replicate 3 |
| --- | --- | --- | --- | --- | --- |
| EIF2B5 (eukaryotic translation initiation factor 2B subunit epsilon) | -0.205 | 3.72 | 0.088 | 0.0501 | -0.0517 |
| ZNF219 (zinc finger protein 219) | -0.859 | 1.79 | -0.848 | -0.534 | -0.714 |
| SSR3 (signal sequence receptor subunit 3) | -0.158 | 1.76 | -0.225 | -0.206 | -0.482 |
| PYY (peptide YY) | -0.478 | 1.42 | -0.205 | -0.74 | -0.232 |
| PITPNA (phosphatidylinositol transfer protein alpha) | -0.241 | 2.08 | -0.431 | -0.444 | -0.127 |
| GABRR1 (gamma-aminobutyric acid type A receptor subunit rho1) | -0.214 | 4.82 | -0.12 | -0.243 | -0.373 |
| PLSCR1 (phospholipid scramblase 1) | -0.142 | 2.62 | -0.284 | -0.272 | 0.0332 |
| MTCH1 | 0.889 | 1.36 | 0.902 | 0.837 | 0.78 |
| KLF12 (KLF transcription factor 12) | 0.466 | 1.74 | 0.645 | 0.839 | 0.0182 |
| CEACAM6 (CEA cell adhesion molecule 6) | -0.0916 | 2.46 | 0.125 | 0.193 | -0.394 |
| PSMA5 (proteasome 20S subunit alpha 5) | 0.0369 | 5.42 | 0.151 | -0.0746 | 0.023 |
| VEPH1 (ventricular zone expressed PH domain containing 1) | -0.312 | 2.33 | -0.164 | 0.0435 | -0.519 |
| TMEM128 (transmembrane protein 128) | 0.503 | 1.37 | 0.347 | 0.0484 | 0.662 |
| WDR93 (WD repeat domain 93) | -0.436 | 3.08 | -0.527 | -0.309 | -0.314 |
| BCAR3 (BCAR3 adaptor protein, NSP family member) | 0.423 | 1.16 | 0.377 | 0.551 | 0.227 |
| SPANXA2 (SPANX family member A2) | 0.17 | 5.45 | 0.221 | 0.0261 | 0.14 |
| CTAG2 (cancer/testis antigen 2) | 0.37 | 1.24 | 0.282 | 0.158 | -0.12 |
| CABLES2 (Cdk5 and Abl enzyme substrate 2) | 0.507 | 2.67 | 0.464 | 0.436 | 0.353 |
| CAPN15 (calpain 15) | 0.0889 | 2.01 | -0.0626 | -0.226 | 0.385 |
| NUF2 (NUF2 component of NDC80 kinetochore complex) | -0.652 | 2.77 | -0.671 | -0.585 | -0.683 |
| FMO2 (flavin containing dimethylaniline monoxygenase 2) | -0.00562 | 2.2 | -0.174 | -0.255 | 0.25 |
| ALG2 (ALG2 alpha-1,3/1,6-mannosyltransferase) | 0.34 | 1.76 | 0.386 | 0.543 | 0.297 |
| RFTN1 (raftlin, lipid raft linker 1) | -0.305 | 3.72 | -0.179 | -0.335 | -0.38 |
| RFPL2 (ret finger protein like 2) | -0.169 | 2.33 | 0.0721 | -0.292 | -0.248 |
| ATG3 (autophagy related 3) | -0.116 | 1.66 | -0.0443 | -0.285 | -0.268 |
| AURKC (aurora kinase C) | 0.46 | 2.16 | 0.447 | 0.591 | 0.00429 |
| TEKT3 (tektin 3) | 0.479 | 1.58 | 0.515 | 0.424 | 0.0813 |

Laid out differently: results already given.
gene knocked down,mean correlation with KSR1 profile,mean distance from KSR1 profile,"KSR1 correlation, replicate 1","KSR1 correlation, replicate 2","KSR1 correlation, replicate 3"
EIF2B5 (eukaryotic translation initiation factor 2B subunit epsilon),-0.205,3.72,0.088,0.0501,-0.0517
ZNF219 (zinc finger protein 219),-0.859,1.79,-0.848,-0.534,-0.714
SSR3 (signal sequence receptor subunit 3),-0.158,1.76,-0.225,-0.206,-0.482
PYY (peptide YY),-0.478,1.42,-0.205,-0.74,-0.232
PITPNA (phosphatidylinositol transfer protein alpha),-0.241,2.08,-0.431,-0.444,-0.127

The results go on.
| gene knocked down | mean correlation with KSR1 profile | mean distance from KSR1 profile | KSR1 correlation, replicate 1 | KSR1 correlation, replicate 2 | KSR1 correlation, replicate 3 |
| --- | --- | --- | --- | --- | --- |
| PIGZ | -0.174 | 2.36 | -0.525 | -0.0713 | -0.103 |
| SNED1 (sushi, nidogen and EGF like domains 1) | 0.73 | 1.07 | 0.893 | 0.514 | 0.528 |
| PCDH19 (protocadherin 19) | -0.172 | 2.69 | -0.148 | -0.276 | -0.278 |
| CEP135 (centrosomal protein 135) | 0.645 | 2.55 | 0.358 | 0.689 | 0.721 |
| KCNA2 (potassium voltage-gated channel subfamily A member 2) | -0.175 | 1.18 | -0.424 | -0.695 | 0.572 |
| PRSS1 (serine protease 1) | 0.633 | 0.798 | 0.361 | 0.555 | 0.925 |
| SPAM1 (sperm adhesion molecule 1) | 0.407 | 1.34 | 0.321 | 0.483 | 0.299 |
| MAGEA1 (MAGE family member A1) | -0.427 | 2.13 | -0.516 | -0.511 | -0.436 |
| DIRAS1 (DIRAS family GTPase 1) | 0.266 | 1.63 | -0.2 | 0.255 | 0.678 |
| SCGB1D2 (secretoglobin family 1D member 2) | -0.118 | 2.68 | 0.00599 | -0.304 | -0.097 |
| SEMA4D (semaphorin 4D) | -0.862 | 2.3 | -0.789 | -0.639 | -0.38 |
| SEC16A (SEC16 homolog A, endoplasmic reticulum export factor) | -0.00518 | 1.85 | 0.0653 | -0.175 | 0.114 |
| OCEL1 (occludin/ELL domain containing 1) | 0.217 | 2.23 | 0.373 | 0.152 | 0.168 |
| SCO2 (synthesis of cytochrome C oxidase 2) | 0.782 | 1.72 | 0.871 | 0.875 | 0.527 |
| SF3A1 (splicing factor 3a subunit 1) | -0.00389 | 2.37 | -0.43 | -0.573 | 0.127 |
| MAGEB3 (MAGE family member B3) | -0.263 | 1.87 | -0.294 | -0.477 | -0.279 |
| DDIT3 (DNA damage inducible transcript 3) | 0.518 | 1.95 | 0.539 | 0.516 | 0.299 |
| NAA15 (N-alpha-acetyltransferase 15, NatA auxiliary subunit) | 0.266 | 1.58 | 0.086 | 0.379 | 0.272 |
| CDK11B (cyclin dependent kinase 11B) | -0.00895 | 2.36 | -0.0955 | -0.0554 | -0.0779 |
| NLRP8 (NLR family pyrin domain containing 8) | -0.502 | 2.3 | -0.748 | -0.183 | -0.957 |
| ABCB10 (ATP binding cassette subfamily B member 10) | -0.63 | 1.62 | -0.284 | -0.646 | -0.55 |
| TNK1 (tyrosine kinase non receptor 1) | -0.172 | 2.17 | -0.201 | 0.182 | -0.526 |
| FBXL12 (F-box and leucine rich repeat protein 12) | 0.241 | 2.57 | 0.24 | 0.161 | 0.224 |
